Assay results: patent US20150064286A1, “PREPARATION AND COMPOSITIONS OF HIGHLY BIOAVAILABLE ZEROVALENT SULFUR AND USES THEREOF” (EMORY UNIVERSITY, priority 2011, published 2015)
Where a name gives a salt, the structure may show the parent alone. At least one structure is not confirmed: it was looked up by name or label, or the drawing left a doubt.

What was measured:
cavernosal smooth muscle = details: Shukla et al., BJU Int. 2009; cited from earlier work
[1] = Percentage bioactive sulfur contained in hydrogen sulfide prodrugs; format: physicochemical; details: sulfur capable of being converted into hydrogen sulfide in vivo

Compound | relaxation of cavernosal smooth muscle (cavernosal smooth muscle) | % Bioactive sulfur (w/w) [1]
CCCc1nn(C)c2c(=O)[nH]c(-c3cc(S(=O)(=O)N4CCN(C)CC4)ccc3OCC)nc12 [sildenafil citrate] | equipotently | 
COc1ccc(-c2cc(=S)ss2)cc1 [Anethole trithione] |  | 13.3 % (w/w)
